# Over roughly 33,000 sequences, “E-score (-0.5 to 0.5)” has its median near -0.0014; the highest 2% begin near 0.25. The list shows a part of the results.
# Target: T1, Cad1 (UniProt P24813)
# T1 sequence: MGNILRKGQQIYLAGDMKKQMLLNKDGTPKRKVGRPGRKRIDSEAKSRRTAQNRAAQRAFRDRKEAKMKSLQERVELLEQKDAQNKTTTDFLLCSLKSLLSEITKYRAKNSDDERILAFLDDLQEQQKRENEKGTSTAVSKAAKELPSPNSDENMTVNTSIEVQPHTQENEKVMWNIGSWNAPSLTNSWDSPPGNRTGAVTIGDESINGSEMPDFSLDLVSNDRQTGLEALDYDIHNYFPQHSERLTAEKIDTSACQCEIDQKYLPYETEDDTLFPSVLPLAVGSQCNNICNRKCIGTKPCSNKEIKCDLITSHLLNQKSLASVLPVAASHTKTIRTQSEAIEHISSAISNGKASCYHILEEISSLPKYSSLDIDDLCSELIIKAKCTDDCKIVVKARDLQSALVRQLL
# Assay: PBM E-score (8-mer binding enrichment) (E-score (-0.5 to 0.5)); higher = stronger / more preferred TF binding
# Conditions: protein concentration: 100 nM; construct: GST-full length
# Procedure, shortened: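 Each ungapped eight-base word and its reverse complement, pooled, received an E-score from the Universal PBM Analysis Suite. Underlying scans, normalised with masliner, recorded fluorescent anti-GST bound to GST-tagged yeast transcription factors. These were applied at about 100-200 nM to universal all-10-mer Agilent arrays double-stranded by primer extension.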
row,Sequence,PBM E-score
1,CGATCTAG,-0.126
2,ACTCCGAT,-0.0617
3,ATGGGCTC,-0.063
4,CTAATCCC,0.0234
5,CAGGCTGG,-0.25
6,ATCCCGGC,-0.0571
7,CTATCGGA,0.0685
8,AAGCACAC,-0.0239
9,CTAGACCC,-0.162
10,TGTTTCAA,0.0302
11,ATTTCCGA,0.0803
12,GCAATATA,0.179
13,AAGTCTGC,0.00888
14,AAAGCGCG,0.0998
15,CTGGAGTA,0.00683
16,CTGTGCGA,-0.0444
17,AAACAGCA,0.0962
18,AACAAAGA,0.0238
19,AACGTGAA,-0.0752
20,GGTCATAC,-0.0427
21,GCCCCTCA,-0.286
22,ATCAGCGA,-0.0209

row,Sequence,PBM E-score
1,CTTATGGA,-0.156
2,AATAGCTC,-0.322
3,ATCGATCG,0.188
4,ATGATGGA,-0.00401
5,CGACACGC,0.11
6,CAAGCTTC,-0.198
7,ACGGAACA,0.0866
8,ACCGGCTG,-0.193
9,GCGACGTA,-0.0212
10,ACCGCGAA,0.166
11,CATACCCC,-0.217
12,GTTATCAA,0.129
13,CTTACTGC,0.0223
14,CCAATAAC,0.123
15,ACGGATGC,0.0923
16,TGGATCAA,-0.0518
17,ACCCCCGA,-0.293
18,GCATACCA,0.0867
19,ACCCATGA,-0.0855
20,GGACGTAA,-0.0957
21,GGGAACTA,-0.0297
22,CACGGAGC,-0.118

# 2 entries picked at random from the list so far:
row,Sequence,PBM E-score
8,ACCGGCTG,-0.193
9,GCGACGTA,-0.0212

# The list goes on.

row,Sequence,PBM E-score
1,CCAAATCA,-0.041
2,GAGCCCGC,-0.178
3,ATCGCATC,0.0114
4,GGCTCCAA,0.0549
5,AGAGTGGC,-0.00676
6,GATGAAGA,-0.109
7,ATAGACCC,0.0282
8,CAGTCGAC,0.188
9,AGTCTGTA,-0.174
10,AAACTAAA,0.141
11,ACAGCTAC,-0.0972
12,CTAATGTA,0.0718
13,GAAGAAAC,-0.0929
14,GGCTAACC,-0.0801
15,GCTCGTCA,-0.112
16,TGTAAACA,0.00733
17,CATCGCTA,0.135
18,CCGGAAAG,0.101
19,ATAACGCA,0.0718
20,GTAGGTAA,0.0138
21,TAACCACA,-0.117
22,ACGGTCAT,0.061

row,Sequence,PBM E-score
1,CGGGAAAG,-0.163
2,ACATGTAC,-0.0258
3,CGCATTTC,0.151
4,CTCTGACC,-0.159
5,CTTCTGTC,-0.0626
6,AGTAGACG,-0.00986
7,ACGCTATC,-0.00432
8,AATACTAC,0.202
9,CCTCCGTC,-0.158
10,GAAGTGTA,-0.155
11,CCCAGGAC,-0.299
12,GATTCCAA,-0.00691
13,GCGTGCCA,0.0968
14,ATACTATC,0.0513
15,TATGACCA,0.0897
16,CGTGTAAG,0.108
17,ACAGGAGC,0.0454
18,CTGTTTTC,0.0989
19,AACCTCTA,-0.12
20,TGTCCGAA,0.266
21,AGGTTGAG,-0.168
22,ATAATGAC,-0.119

# 4 neighbouring entries from above, for reference:
row,Sequence,PBM E-score
11,CCCAGGAC,-0.299
12,GATTCCAA,-0.00691
13,GCGTGCCA,0.0968
14,ATACTATC,0.0513

# Additional records follow.

row,Sequence,PBM E-score
1,CTGCGCCA,0.00034
2,AACTTCGC,0.149
3,CTTACTCA,0.208
4,AGCTCAAT,0.033
5,AGTAGAGC,-0.225
6,CCAGCAGG,-0.188
7,GTGCGGTA,0.121
8,AGGTCTGC,-0.0819
9,ATAGAAAC,-0.00162
10,AACGTATC,-0.0638
11,CCGGTACC,-0.181
12,AACTGGAG,-0.162
13,GTTTAAAC,0.238
14,ACAGGACG,-0.0894
15,GTAAGGAC,-0.19
16,GTAACGGA,0.223
17,AAGAGCTT,-0.0311
18,AATACATG,0.0416
19,CGATATTC,0.173
20,ACCTCTAA,-0.14
21,AGGCTGGG,-0.182
22,ACGACCAG,0.0402
